Structures can show the parent of a compound that is named as a salt. This is one part of the list. Repeats are few or missing, and single values can be far off.
Columns and labels:
Assay in all cases: reduction in cell viability relative to untreated/vehicle; higher = more growth inhibition
Conditions in all cases: 200 nM; 72 h
[1] = system: M229P (parental melanoma line)
[2] = system: M229R (matched melanoma line resistant to BRAF inhibitors)
[3] = system: M238P (parental melanoma line)
[4] = system: M238R (matched melanoma line resistant to BRAF inhibitors)
[5] = system: M249P (parental melanoma line)
[6] = system: M249R (matched melanoma line resistant to BRAF inhibitors)
[7] = system: UACC62P (parental melanoma line)
[8] = system: UACC62R (matched melanoma line resistant to BRAF inhibitors)

Structure (SMILES) | reduction in cell viability [1] | reduction in cell viability [2] | reduction in cell viability [3] | reduction in cell viability [4] | reduction in cell viability [5] | reduction in cell viability [6] | reduction in cell viability [7] | reduction in cell viability [8]
O=C1c2c(O)cc(O)cc2OC(c2ccc(O)c(O)c2)C1O (stereo unspecified) [Taxifolin] | < 0% | < 0% | < 0% | < 0% | < 0% | < 0% | < 0% | < 0%
CC(Oc1ccc(O)cc1)(P(=O)(O)O)P(=O)(O)O | < 0% | 7.12% | < 0% | < 0% | < 0% | < 0% | < 0% | < 0%
COc1c(N2C[C@@H]3CCCN[C@@H]3C2)c(F)cc2c(=O)c(C(=O)O)cn(C3CC3)c12 [Moxifloxacin hydrochloride monohydrate] | < 0% | < 0% | < 0% | < 0% | < 0% | < 0% | < 0% | < 0%
COC(=O)[C@H](c1ccccc1Cl)N1CCc2sccc2C1 [Clopidogrel bisulfate] | < 0% | < 0% | < 0% | < 0% | < 0% | < 0% | < 0% | < 0%
CCCCCCCCCCCCCC(=O)N[C@H](CO)[C@H](O)c1ccc([N+](=O)[O-])cc1 | < 0% | < 0% | < 0% | < 0% | 0.35% | < 0% | < 0% | < 0%
c1cc(N[C@@H]2CCNC2)nc(-c2cnc3ccc(-c4cn[nH]c4)cn23)c1 | < 0% | < 0% | 2.31% | < 0% | < 0% | < 0% | 6.57% | 0.55%
Clc1ccc(-c2nc3sccn3c2/C=N/OCc2ccc(Cl)c(Cl)c2)cc1 | < 0% | < 0% | < 0% | < 0% | < 0% | < 0% | < 0% | < 0%
CC(C)=CCC/C(C)=C/CC/C(C)=C/CSc1ccccc1C(=O)O [Salirasib] | < 0% | < 0% | < 0% | < 0% | < 0% | < 0% | < 0% | < 0%
N#Cc1c(N(CC(=O)O)CC(=O)O)sc(C(=O)O)c1CC(=O)O [Strontium ranelate heptahydrate] | < 0% | < 0% | < 0% | < 0% | < 0% | < 0% | < 0% | < 0%
CN1CCN(CCCN2c3ccccc3Sc3ccc(C(F)(F)F)cc32)CC1 [Trifluoperazine hydrochloride] | < 0% | < 0% | < 0% | < 0% | < 0% | < 0% | < 0% | < 0%
CC(C)(C)C(=O)Oc1ccc2c(c1)nc(NC(=O)c1cccc([N+](=O)[O-])c1)n2CCCO | < 0% | < 0% | < 0% | < 0% | < 0% | < 0% | < 0% | < 0%
COc1ccc(C2=N[C@@H](c3ccc(Cl)cc3)[C@@H](c3ccc(Cl)cc3)N2C(=O)N2CCNC(=O)C2)c(OC(C)C)c1 [Nutlin-3] | < 0% | < 0% | < 0% | < 0% | < 0% | < 0% | 11.2% | 3.35%
O=C(O)CCNc1cc(N2CCc3ccccc3CC2)nc(-c2ccccn2)n1 | < 0% | < 0% | < 0% | < 0% | < 0% | < 0% | < 0% | < 0%
Nc1ccn([C@H]2CC[C@@H](CO)O2)c(=O)n1 [Zalcitabine] | < 0% | < 0% | 2.59% | < 0% | < 0% | < 0% | 7.54% | < 0%
CCCCN(CCCC)CCC(O)c1cc2c(Cl)cc(Cl)cc2c2cc(C(F)(F)F)ccc12 (stereo unspecified) [Halofantrine] | 9.44% | < 0% | 5.59% | < 0% | < 0% | < 0% | 21.2% | 0.44%
C[C@H]1[C@@H](O)O[C@@H]2O[C@@]3(C)CC[C@H]4[C@H](C)CC[C@@H]1[C@@]24OO3 [Artenimol] | < 0% | < 0% | < 0% | < 0% | < 0% | < 0% | < 0% | < 0%
CC1=C(/C=C/C(C)=C/C=C/C(C)=C/C=C/C=C(C)/C=C/C=C(C)/C=C/C2=C(C)CCCC2(C)C)C(C)(C)CCC1 [beta-Carotene] | < 0% | < 0% | < 0% | < 0% | < 0% | < 0% | < 0% | < 0%
O=c1c(O)c(-c2ccc(O)cc2)oc2cc(O)cc(O)c12 [Kaempferol] | < 0% | < 0% | < 0% | < 0% | < 0% | < 0% | < 0% | < 0%
N=C(NCCCCCCNC(=N)NC(=N)Nc1ccc(Cl)cc1)NC(=N)Nc1ccc(Cl)cc1 [Chlorhexidine] | < 0% | 6.59% | < 0% | < 0% | < 0% | < 0% | < 0% | < 0%
Cc1nc2cnc3ccc(C#Cc4cccnc4)cc3c2n1-c1ccc(C(C)(C)C#N)cc1 | 34.8% | 43.7% | 43% | 41.6% | 24.6% | 53.4% | 35.1% | 45.5%
Cc1cc(Nc2nc(N[C@@H](C)c3ncc(F)cn3)ncc2Cl)[nH]n1 | < 0% | < 0% | < 0% | < 0% | < 0% | < 0% | < 0% | < 0%

Structure (SMILES) | reduction in cell viability [1] | reduction in cell viability [2] | reduction in cell viability [3] | reduction in cell viability [4] | reduction in cell viability [5] | reduction in cell viability [6] | reduction in cell viability [7] | reduction in cell viability [8]
CCc1cc(/C(C)=N/OCc2ccc(C3CCCCC3)c(C(F)(F)F)c2)ccc1CN1CC(C(=O)O)C1 | < 0% | < 0% | < 0% | < 0% | < 0% | < 0% | < 0% | < 0%
CCOc1cc2c(c(F)c1OCC)C(=N)N(CC(=O)c1cc(N3CCOCC3)c(OC)c(C(C)(C)C)c1)C2 | < 0% | < 0% | 10.6% | 16.4% | 11.7% | < 0% | 19.2% | 11.8%
CN1C(=O)C(Cc2c[nH]c3ccccc23)NC1=S (stereo unspecified) [Necrostatin-1] | < 0% | < 0% | < 0% | < 0% | < 0% | < 0% | 0.65% | < 0%
O=c1ccn([C@@H]2O[C@H](CO)[C@@H](O)[C@@H]2F)c(=O)[nH]1 [1-(2 -Deoxy-2 -fluoro-b-D-arabinofuranosyl)uracil] | < 0% | < 0% | < 0% | < 0% | < 0% | < 0% | < 0% | < 0%
Cc1cccc(-c2[nH]c(C(C)(C)C)nc2-c2ccc3nccnc3c2)n1 | < 0% | < 0% | < 0% | < 0% | < 0% | < 0% | 3.59% | < 0%
C/C=C/C[C@@H](C)C(=O)[C@H]1C(=O)N[C@@H](C(C)C)C(=O)N(C)CC(=O)N(C)[C@@H](CC(C)C)C(=O)N[C@@H](C(C)C)C(=O)N(C)[C@@H](CC(C)C)C(=O)N[C@@H](C)C(=O)N[C@H](C)C(=O)N(C)[C@@H](CC(C)C)C(=O)N(C)[C@@H](CC(C)C)C(=O)N(C)[C@@H](C(C)C)C(=O)N1C [Valspodar] | < 0% | < 0% | < 0% | < 0% | < 0% | 1.55% | < 0% | < 0%
COc1cc(NS(=O)(=O)c2ccc(N)cc2)nc(OC)n1 [Sulphadimethoxine] | < 0% | < 0% | < 0% | < 0% | < 0% | < 0% | < 0% | < 0%
CCN1CCN(Cc2ccc(-c3cc4c(N[C@H](C)c5ccccc5)ncnc4[nH]3)cc2)CC1 | < 0% | < 0% | < 0% | < 0% | 3.37% | 3.29% | 3.27% | < 0%
CCCCc1nc2cc(/C=C/C(=O)NO)ccc2n1CCN(CC)CC [Pracinostat] | < 0% | 6.79% | 3.65% | < 0% | < 0% | 1.2% | < 0% | 14.5%
CN(C)CCOC(c1ccccc1)c1ccccc1 [Diphenhydramine hydrochloride] | < 0% | < 0% | < 0% | < 0% | < 0% | < 0% | < 0% | < 0%
COCC[n+]1c2c(n(Cc3cnccn3)c1C)C(=O)c1ccccc1C2=O [Sepantronium bromide] | 92.7% | 96.4% | 89.4% | 94.8% | 91.9% | 95.2% | 89.4% | 100%
CN(CCOc1ccc(NS(C)(=O)=O)cc1)CCc1ccc(NS(C)(=O)=O)cc1 [Dofetilide] | < 0% | < 0% | < 0% | < 0% | < 0% | < 0% | < 0% | < 0%
C=CC(=O)Nc1ccc2ncnc(Nc3ccc(OCc4cccc(F)c4)c(Cl)c3)c2c1 | < 0% | < 0% | < 0% | 16.1% | < 0% | < 0% | 2.52% | < 0%
CC(C)c1c(C(=O)Nc2ccccc2)c(-c2ccccc2)c(-c2ccc(F)cc2)n1CC[C@@H](O)C[C@@H](O)CC(=O)O [Atorvastatin calcium] | < 0% | < 0% | < 0% | < 0% | < 0% | < 0% | < 0% | < 0%
CC(C)OC(=O)C(C(=O)OC(C)C)=C1SC=CS1 [Malotilate] | < 0% | < 0% | < 0% | < 0% | < 0% | < 0% | 2.93% | < 0%
O=C(c1ccc(F)c(F)c1Nc1ccc(I)cc1F)N1CC(O)([C@@H]2CCCCN2)C1 | 35.2% | < 0% | 33% | < 0% | 82% | 80.1% | 61.9% | 43.7%
CCn1cc(-c2ccnc3[nH]c(-c4cccc(CN(C)C)c4)cc23)c(-c2ccc(NC(=O)N(C)C)cc2)n1 | < 0% | < 0% | 16.9% | 9.33% | < 0% | < 0% | 1.2% | 57.5%
CC(C)(C)NCC(O)c1ccc(O)c(CO)c1 (stereo unspecified) [Albuterol] | < 0% | < 0% | < 0% | < 0% | < 0% | < 0% | < 0% | < 0%
CN[C@H](CC(C)C)C(=O)N[C@H]1C(=O)N[C@@H](CC(N)=O)C(=O)N[C@H]2C(=O)N[C@H]3C(=O)N[C@H](C(=O)N[C@H](C(=O)O)c4cc(O)cc(O)c4-c4cc3ccc4O)[C@H](O)c3ccc(c(Cl)c3)Oc3cc2cc(c3O[C@@H]2O[C@H](CO)[C@@H](O)[C@H](O)[C@H]2O[C@H]2C[C@](C)(N)[C@H](O)[C@H](C)O2)Oc2ccc(cc2Cl)[C@H]1O [Vancomycin hydrochloride] | < 0% | < 0% | < 0% | < 0% | < 0% | 1.15% | < 0% | < 0%
CN1C(C(=O)Nc2ccccn2)=C(O)c2sc(Cl)cc2S1(=O)=O [Lornoxicam] | < 0% | < 0% | < 0% | < 0% | < 0% | < 0% | < 0% | < 0%
Cc1c(C(=O)NN2CCCCC2)nn(-c2ccc(Cl)cc2Cl)c1-c1ccc(Cl)cc1 [Rimonabant] | < 0% | < 0% | < 0% | < 0% | < 0% | < 0% | < 0% | < 0%

Part of the list above in order of SMILES length, low to high.
Structure (SMILES) | reduction in cell viability [1] | reduction in cell viability [2] | reduction in cell viability [3] | reduction in cell viability [4] | reduction in cell viability [5] | reduction in cell viability [6] | reduction in cell viability [7] | reduction in cell viability [8]
Nc1ccn([C@H]2CC[C@@H](CO)O2)c(=O)n1 [Zalcitabine] | < 0% | < 0% | 2.59% | < 0% | < 0% | < 0% | 7.54% | < 0%
CCCCc1nc2cc(/C=C/C(=O)NO)ccc2n1CCN(CC)CC [Pracinostat] | < 0% | 6.79% | 3.65% | < 0% | < 0% | 1.2% | < 0% | 14.5%
CC1=C(/C=C/C(C)=C/C=C/C(C)=C/C=C/C=C(C)/C=C/C=C(C)/C=C/C2=C(C)CCCC2(C)C)C(C)(C)CCC1 [beta-Carotene] | < 0% | < 0% | < 0% | < 0% | < 0% | < 0% | < 0% | < 0%

Source: the supplement of paper PMC9015667
